Experimental data: patent publication US9150627B2, “Anti tumoral immunogenic peptides and vaccine thereof” (priority 2004, dated 2015)
Part of at least one peptide drawing is inferred or uncertain, most often the ends. Where no end group is shown, it is not given here.

Key:
CD2F1 mouse = assay: ELISA for anti-[…] specific antibodies in sera of immunized mice; format: in vivo
[1] = test system: DHD-K12 immunized BDIX rat lymphocytes; assay: ELISPOT assay (INF-γ) with lymphocytes of DHD-K12 inoculated rats; format: cell-based; settings: FIG. 3; lymphocytes of DHD cell i.p. inoculated rats, 200000 cell/well

Sequence: RTQKEASI
- animals that developed antibodies against RTQKEASI (CD2F1 mouse; 4 CD2F1 mice immunized s.c., 5 immunizations): 3 out of 4
- OD(nm) (CD2F1 mouse; Animal 1, serum dilution 1:1000): 0.251
- OD(nm) (CD2F1 mouse; Animal 1, serum dilution 1:2500): 0.216
- OD(nm) (CD2F1 mouse; Animal 2, serum dilution 1:1000): 0.210
- OD(nm) (CD2F1 mouse; Animal 2, serum dilution 1:2500): 0.177
- OD(nm) (CD2F1 mouse; Animal 3, serum dilution 1:1000): 0.156
- OD(nm) (CD2F1 mouse; Animal 3, serum dilution 1:2500): 0.121
- OD(nm) (CD2F1 mouse; Animal 4, serum dilution 1:1000): 0.276
- OD(nm) (CD2F1 mouse; Animal 4, serum dilution 1:2500): 0.190

Sequence: RTQKEASIC
- immunogenicity in ELISPOT (antigen specific INF-γ response), comparison with known art peptide [1]: more immunogenic
